Some compounds share one wording; it may come from a single statement. Some ranges recur; such a range may be that of the whole group of compounds.
Experiment: Deposition of perfume ingredients on spandex-containing cloth versus all-cotton cloth after washing (solvent extraction, gas chromatography)
Conditions: concentration extracted from 95% cotton/5% spandex cloth relative to all-cotton cloth; detergent powder with 0.5% perfume; line dried overnight

| SMILES | Enhancement |
| --- | --- |
| OCCc1ccccc1 [2-Phenylethanol] | L (less than 5 or not measurable, it was coded(L)) |
| CC(=O)OC(C)(C)C1CC=C(C)CC1 (stereo not drawn) [Terpinyl acetate] | H (greater by 20 or more, it was coded high(H)) |
| CCC(C)(O)CCCC(C)C (stereo not drawn) [Tetrahydrolinalol] | H (greater by 20 or more, it was coded high(H)) |
| CC(=O)c1cc2c(cc1C)C(C)(C)C(C)CC2(C)C (stereo not drawn) [Tonalid] | M (greater than from the all-cotton cloth by a factor of 5 to 20, the result was coded as a medium enhancement (M)) |
| CCOCOC1CCCCCCCCCCC1 [Boisambrene Forte] | M (greater than from the all-cotton cloth by a factor of 5 to 20, the result was coded as a medium enhancement (M)) |
| CC(=O)CCc1ccccc1 [Benzyl acetone] | M (greater than from the all-cotton cloth by a factor of 5 to 20, the result was coded as a medium enhancement (M)) |
| CC(C)CCCC(C)CCO (stereo not drawn) [Tetrahydrogeraniol] | H (greater by 20 or more, it was coded high(H)) |
| CC(C)CCCC(C)(C)O [2,6-Dimethyl-heptan-2-ol] | L (less than 5 or not measurable, it was coded(L)) |
| CC(C)=CCCC(C)CCO (stereo not drawn) [Citronellol] | H (greater by 20 or more, it was coded high(H)) |
| COC(=O)c1ccccc1O [Methyl salicylate] | L (less than 5 or not measurable, it was coded(L)) |
| COc1ccc2ccccc2c1 [Yara] | H (greater by 20 or more, it was coded high(H)) |
| CC(=O)OC1CC2CC1C1CC=CC21 (stereo not drawn) [Jasmacyclene, tricyclodecenyl acetate] | H (greater by 20 or more, it was coded high(H)) |

Reference: patent publication US6780835B2, “Perfume compositions” (Quest International B.V., priority 1997, dated 2004)
